Experimental data as given in patent US12083119B2, “Methods and compositions for treating viral or virally-induced conditions” (VIRACTA SUBSIDIARY, INC., priority 2010, dated 2024).
Some of these results come from one statement about several compounds together.

Tested on: P3HR1 cells
Assay type: cell-based, human
Description: The induction of lytic phase was assayed in EBV-positive lymphoma cell lines exposed to different HDAC inhibitors (HDACi) for 24-48 hrs, then the expression of EBV TK and other EBV transcripts by RT-PCR analysis was quantified. To determine tumor cytotoxic activity of the combination of HDACi and GCV, EBV+ lymphoma cells were exposed to a range of concentrations of HDAC inhibitors and ganciclovir (GCV) for 3 days and then to GCV alone for another 3 days. Efficacy of a particular HDAC inhibitor in the combination treatment approach was then determined by enumerating living cells. A general experimental protocol is described below.
The EBV-positive B lymphoma cell line P3HR1 was used in the study. The P3HR1 cell line was originally derived from Burkitt's lymphoma patient. […]
To test the sensitivity of EBV-positive lymphoma cells towards HDAC inhibitors, P3HR1 cells were treated with HDAC inhibitors in the presence of one anti-viral drug. At the end of the assay, the efficacy of the HDAC inhibitors was assessed by measuring the inhibition of cell growth compared to untreated cells.
Healthy, actively-growing P3HR1 cells were harvested and resuspended in fresh growth media. […] On day 6, cell morphology was observed under microscope and viable cell counts in each individual wells were determined by trypan blue dye exclusion method using an automated cell counter (Countess, Invitrogen).

Row | SMILES | potency in killing EBV+ lymphoma cells in the presence of GCV compared to sodium butyrate
1 | Cc1[nH]c2ccccc2c1CCNCc1ccc(/C=C/C(=O)NO)cc1 [LBH589] | 10^4 to 10^5 times
2 | Nc1ccccc1NC(=O)c1ccc(CNC(=O)OCc2cccnc2)cc1 [MS-275, 3-pyridinylmethyl [[4-[[(2-aminophenyl)amino]carbonyl]phenyl]methyl] carbamate] | 10^4 to 10^5 times
